Results published in PubChem BioAssay AID493014 (National Center for Advancing Translational Sciences (NCATS), 2011).
About 170 (0.05%) of roughly 340,000 compounds were called active. Inconclusive results, whose numbers are uncertain, are shown with a selection of clear calls. The call rests on the fitted dose curve; in most records, active means well fitted inhibition curve with a large enough effect in the signal ratio, with a control signal flat (not every such curve was filed as active); inconclusive means small, poorly fitted or top-dose-only effect, or effect the other way, or a change in a side signal; inactive means flat fitted curve, though single readings scatter; the % refers to the signal ratio. Where the call is inconclusive, the potency comes from a doubtful curve fit.

assay: qHTS Assay to Find Inhibitors of Chronic Active B-Cell Receptor Signaling; conditions: ABC-DLBCL IkBa-CBG/CBR reporter, luminescence ratio (green luciferase fused to IkBa over red control in TMD8 lymphoma cells), 4 h; activity change, negative = inhibition: at 46.1 µM (top of the series) unless noted;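 on activity change, negative = inhibition: plate controls were basal doxycycline-induced cells for no effect and cells given 10 µM MG132 for full effect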
Outline: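 TMD8 ABC-DLBCL cells carrying doxycycline-inducible green luciferase fused to IkappaBalpha plus unfused red luciferase were exposed to compounds (up to 46 uM) for 4 hrs at 37C. Activity came from the overlap-corrected green/red luminescence ratio.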
Potency means the concentration at half of the fitted maximal effect.

Row | Structure (SMILES) | Potency | activity change, negative = inhibition
1 | c1ccc(OCCOCCSc2ncccn2)cc1 | inconclusive: 25.1 µM [falling, single point] | –
2 | Cc1c(NC(=O)CN2C(=O)NC(C)(c3ccccc3)C2=O)c(=O)n(-c2ccccc2)n1C (stereo not given) | – | inconclusive: 10.5%
3 | Cc1cc(C)c(OCC(=O)N/N=C/c2ccc3c(c2)OCO3)c(C)c1 | – | inactive
4 | Cc1cnc(C(=O)OC(C)C(=O)Nc2ccc3c(c2)OCCO3)cn1 (stereo not given) | – | inconclusive: -3.55%
5 | O=C(Nc1cccc(Cl)c1)N1CC2CCCN2c2ccccc21 (stereo not given) | – | inconclusive: 19.3%
6 | CC1(C)CC(=O)C2=C(C1)N(c1ccc(F)cc1)C(N)=C(C#N)C2c1cccs1 (stereo not given) | – | inconclusive: 4.53%
7 | CN=c1c([N+](=O)[O-])nn(-c2ccc3c(c2)OCCO3)n1O | – | inactive
8 | CC(C)CNC(=O)C1CCN(Cc2ccc(OCc3ccccc3)cc2)CC1 | – | inconclusive: -0.709%
9 | CCOc1c(OC(C)=O)ccc(/C=C/c2ccc3cccc(OC)c3n2)c1[N+](=O)[O-] | – | inactive
10 | COc1ccc(N2CC(C(=O)OCC(=O)Nc3cccc(C)c3C)CC2=O)cc1 (stereo not given) | – | inconclusive: 0.0898%
11 | CC1(C)Cc2c(C#N)c(NCCN3CCOCC3)nc(-c3ccco3)c2CO1 | – | inconclusive: 12.4%
12 | CN(C)CCCN(C(=O)c1ccc(S(=O)(=O)N2CCCC2)cc1)c1nc2ccc(Br)cc2s1 | – | inconclusive: 2.98%
13 | CCCCC(=O)N1CCc2cc(OC)c(OC)cc2C1COc1ccc(C(=O)OCC)cc1 (stereo not given) | – | inactive
14 | CCOC(=O)C1=C(CC)Nc2ccccc2N=C1NC(=O)Nc1ccc(Cl)c(Cl)c1 | – | inconclusive: -14.8%
15 | COc1ccc(N=Cc2c(O)[nH]c3ccccc23)cc1OC | inconclusive: 18.4 µM [falling, partial curve] | –
16 | O=C(O)CCSc1nnc(-c2ccncc2)n1-c1ccccc1 | – | inactive
17 | Cc1nc(N2CCN(C(=O)c3ccco3)CC2)nc2c1C(=O)CC(C)C2 (stereo not given) | – | inconclusive: 0.918%
18 | O=c1oc2cc(Oc3c([N+](=O)[O-])cc(C(F)(F)F)cc3[N+](=O)[O-])ccc2c2c1CCCC2 | – | inconclusive: 1.31%
19 | CC(=O)c1c(C)[nH]c(C(=O)OCc2nnc(-c3ccccc3)o2)c1C | – | inconclusive: 6.42%
20 | COc1ccc(-c2cc(C(=O)Nc3ccccc3F)on2)cc1 | inconclusive: 2.51 µM [falling, full curve, poor fit] | –
21 | COC(=O)c1ccccc1NC(=O)c1cccc(NC(=O)c2ccc(Br)o2)c1C | – | inconclusive: 7.67%
22 | CCOC(=O)c1cc(-c2ccc(C)cc2)n(CCCC(=O)Nc2cc(C)ccc2C)c1 | – | inconclusive: -1.49%
23 | CCOc1ccccc1NC1=C(Cl)C(=O)N(c2ccc(OC)cc2)C1=O | – | inconclusive: -16.9%
24 | c1cnc2ccc(C(c3nnnn3C3CCCC3)N3CCN4CCCC4C3)cc2c1 (stereo not given) | – | inconclusive: 11.2%
25 | Fc1ccc(NC(=S)N/N=C/c2cccc(Br)c2)c(F)c1 | – | inconclusive: -22%
26 | CCn1c(N2CCN(CC(=O)c3c(C)n(C)c4ccccc34)CC2)nc2c1c(=O)[nH]c(=O)n2C | – | inconclusive: -1.59%
27 | Cc1cc(C)n(-c2ccc(C(=O)C(C#N)c3nc4ccccc4n3C)cc2)n1 (stereo not given) | – | inactive

Looked up by structure from above (5):
Row | Structure (SMILES) | Potency | activity change, negative = inhibition
5 | O=C(Nc1cccc(Cl)c1)N1CC2CCCN2c2ccccc21 (stereo not given) | – | inconclusive: 19.3%
17 | Cc1nc(N2CCN(C(=O)c3ccco3)CC2)nc2c1C(=O)CC(C)C2 (stereo not given) | – | inconclusive: 0.918%
24 | c1cnc2ccc(C(c3nnnn3C3CCCC3)N3CCN4CCCC4C3)cc2c1 (stereo not given) | – | inconclusive: 11.2%
22 | CCOC(=O)c1cc(-c2ccc(C)cc2)n(CCCC(=O)Nc2cc(C)ccc2C)c1 | – | inconclusive: -1.49%
16 | O=C(O)CCSc1nnc(-c2ccncc2)n1-c1ccccc1 | – | inactive

Further compounds follow:

Row | Structure (SMILES) | Potency | activity change, negative = inhibition
28 | Cc1ccc(-n2nnc(-c3nccn3C)n2)cc1 | inconclusive: 35.5 µM [rising, single point] | –
29 | COc1ccc(OCc2nn3c(-c4ccco4)nnc3s2)cc1 | – | inconclusive: 2.38%
30 | O=C(CCN1CCCC1)c1cccs1 | – | inconclusive: 14.9%
31 | CCOc1cc(NC(=S)NC)c(OCC)cc1NC(=O)c1ccco1 | – | inactive
32 | C=CCn1c(SCC(=O)c2cc(C)n(C(C)COC)c2C)nc2sc(C)c(C)c2c1=O (stereo not given) | – | inconclusive: 8.2%
33 | COc1ccc(NC(=O)CSc2ccc3nnc(-c4ccccn4)n3n2)cc1 | – | inactive
34 | CCOC(=O)c1sc(-c2ccc(F)cc2)cc1NC(=O)Nc1ccccc1OC | – | inactive
35 | Cc1ccc([N+](=O)[O-])cc1NC(=O)/C=C/C(=O)O | – | inactive
36 | Cc1ccc(-c2ccccc2)n1-c1cccc(C(=O)O)c1 | inconclusive: 35.5 µM [falling, single point] | –
37 | N#Cc1cc2c(nc1SCC(=O)O)CCCC2 | inconclusive: 6.51 µM [falling, full curve, poor fit] | –
38 | Cc1ccc(C(=O)Nc2ccc(Nc3ccccc3)cc2)c(Cl)c1 | – | inconclusive: 4.9%
39 | CCn1c(=O)c(C(=O)CN(C)Cc2cccc(OC)c2OC)c(N)n(Cc2ccccc2)c1=O | – | inconclusive: 1.8%
40 | COc1ccc(C2/C(=C(/O)c3ccccc3)C(=O)C(=O)N2CCCN2CCOCC2)cc1 (stereo not given) | – | inconclusive: 8.36%
41 | O=C(Cn1nc2ccccc2n1)N/N=C/c1cc([N+](=O)[O-])ccc1O | – | inconclusive: -6.26%
42 | COC(=O)c1c(-c2ccc3ccccc3c2)csc1NC(=O)Cc1ccc(OC)c(OC)c1 | – | inconclusive: 4.53%
43 | Cc1nc(C(=O)NNC(=O)c2cccc(Cl)c2)c(C(F)(F)F)o1 | inconclusive: 22.4 µM [falling, single point] | –
44 | C/C(=N\NC(=O)c1ccc(C)cc1)c1c(C)[nH]n(-c2ccccc2)c1=O | – | inconclusive: 1.15%
45 | O=C1Nc2ccccc2N=C(c2ccccc2)c2ccccc21 | – | inactive
46 | O=[N+]([O-])c1nn(-c2cccc(Cl)c2)n(O)c1=NCc1cccnc1 | – | inactive
47 | Cc1nc(SCC(=O)Nc2ccccc2C(F)(F)F)c(C#N)c(C)c1CC(=O)c1ccc(Br)cc1 | inconclusive: 3.66 µM [rising, partial curve, poor fit] | –
48 | CC(C)(C)C(=O)NC(=S)Nc1ccccc1C(=O)Nc1ccccc1 | inconclusive: 28.2 µM [falling, single point] | –
49 | COc1ccc(CCC(=O)N2c3ccccc3CC2C)cc1 (stereo not given) | – | inconclusive: 0.346%
50 | O=C(Cn1cnc2onc(-c3ccc(Cl)cc3)c2c1=O)Nc1ccc(F)cc1 | – | inactive
51 | O=C(Oc1ccc(-c2ccccc2)cc1)N1CCOCC1 | inconclusive: 29.1 µM [falling, single point] | –
52 | Cc1cc(=O)n2c(nc3ccccc32)[nH]1 | – | inconclusive: 2.84%
53 | CC1CN(C(=O)c2cc([N+](=O)[O-])cc([N+](=O)[O-])c2)CC(C)O1 (stereo not given) | – | inconclusive: -14.8%
54 | O=C(c1ccc(Cl)c(S(=O)(=O)N2CCCCC2)c1)N1CCCCCC1 | – | inconclusive: 1.63%

Row | Structure (SMILES) | Potency | activity change, negative = inhibition
55 | O=C(CCN1C(=O)/C(=C/c2ccc3c(c2)OCO3)SC1=S)NNC(=O)c1cccnc1 | inconclusive: 12.6 µM [falling, partial curve] | –
56 | O=C(NCc1ccco1)c1sc2cccc(F)c2c1Cl | – | inconclusive: 3.92%
57 | CCOC(=O)COn1c(=O)c(-c2cc3ccccc3o2)[n+]([O-])c2ccccc21 | inconclusive: 11.2 µM [falling, partial curve, poor fit] | –
58 | CCN(CC)CCOC(=O)c1ccc(NC(=O)CCCN2C(=O)/C(=C\c3cccs3)SC2=S)cc1 | inconclusive: 17.8 µM [falling, partial curve] | –
59 | C[C@@]12C(=O)Nc3cc(Cl)ccc3C(=O)N1[C@H]1c3ccccc3OC[C@@H]1[C@@H]2c1ccccc1 | – | inconclusive: 18.4%
60 | Cc1ccc2c(c1)N(CC(=O)N(Cc1ccccn1)Cc1ccco1)C(=O)C(C(C)C)O2 (stereo not given) | – | inconclusive: 11.5%
61 | CCN(CC)S(=O)(=O)c1cc(NC(=O)Cc2ccsc2)ccc1C | – | inconclusive: 9.97%
62 | COc1cccc(-c2cc(C(=O)Nc3cccnc3)c3ccccc3n2)c1 | – | inconclusive: 5.98%
63 | COc1cccc(-c2nn3c(-c4ccco4)nnc3s2)c1 | – | inactive
64 | Cc1ccc(Nc2sc(C(=O)c3ccccc3)c(N)c2C(N)=O)cc1 | – | inactive
65 | Cc1ccc(OCCC(=O)OCC(=O)NC(=O)NC2CCCCC2)cc1 | inconclusive: 14.6 µM [falling, single point] | –
66 | Fc1ccc(NC(=S)NCCc2ccc(Cl)cc2)cc1 | – | inactive
67 | COC(=O)C1=C(C)N(Cc2ccccc2)C(=NCc2cccc(Cl)c2)N[C@H]1c1cccc(F)c1 | inconclusive: 35.5 µM [rising, single point] | –
68 | CCn1c(-c2cccc(Br)c2)n[nH]c1=S | – | inconclusive: 11.5%
69 | O=c1oc2ccccc2cc1-c1nc2ccccc2o1 | inconclusive: 28.2 µM [falling, single point] | –
70 | COc1ccccc1N1CCN(C(=O)C(=O)c2cn(CC(=O)N3CCOCC3)c3ccccc23)CC1 | inconclusive: 12.6 µM [falling, single point] | –
71 | COC(=O)c1cn[nH]c1N | – | inactive
72 | Cc1cnc(NC(=O)Nc2ccccc2)c(C)n1 | – | inconclusive: 2.9%
73 | O=C(CCCN1C(=O)/C(=C/c2ccccc2)SC1=S)N1CCOCC1 | inconclusive: 12.6 µM [cytotoxic, partial curve] | –
74 | N#Cc1ncc(-c2ccc3c(c2)OCCOCCOCCOCCO3)nc1C#N | – | inactive
75 | COc1ccc2cc(C3CC(c4ccco4)=NN3S(=O)(=O)c3ccccc3)c(Cl)nc2c1 (stereo not given) | – | inactive
76 | COc1ccc(-c2nc(CCNC(=O)c3ccc(Br)o3)cs2)cc1 | inconclusive: 3.26 µM [falling, partial curve, poor fit] | –
77 | CC1=C(C(=O)NC2CCCc3c2cnn3-c2ccc(F)cc2F)OCCO1 (stereo not given) | – | inactive
78 | CSc1ccccc1C(=O)NC1CCCCC1 | – | inconclusive: -0.163%
79 | CC1Cc2ccccc2N1C(=O)COC(=O)c1ccc(O)cc1 (stereo not given) | inconclusive: 2.82 µM [falling, full curve] | –
80 | COc1nc(N/N=C/c2ccc(-c3cccc([N+](=O)[O-])c3)o2)nc(N2CCOCC2)n1 | – | inconclusive: -4.82%
